From PubChem BioAssay (NCATS)
“And” between values parts separate entries of the source, which are not always exact repeats. Identical values can stand only once. The list shows a part of the results. These are further read-outs of the screen, such as a control signal, another cell line or another target. No call is given for them. Compounds called inactive in the main read-out are mostly missing here. For part of these data: Potencies come from curve fits of mixed quality, noted in brackets.

assay: qHTS assay for small molecule antagonists of peroxisome proliferator-activated receptor gamma signaling (AID 588537); conditions: HEK293 PPARg-UAS-bla, beta-lactamase ratio, antagonist mode; measured here: W460 blue channel
Method in brief: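 PPARγ-UAS-bla HEK293 cells (3000/well) in 1% charcoal/dextran-stripped FBS are treated with compound, then stimulated with 50 nM rosiglitazone for 16 h at 37 °C. Read-out is CCF4 β-lactamase fluorescence after 2 h at RT. IC50 comes from Hill fits normalised to rosiglitazone and DMSO.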

Compound	AC50
CC(C)(c1ccccc1)c1ccc(O)cc1	63.1 µM [rising, single point] and 2.82 µM [falling, partial curve, poor fit]
CO/N=C(/C1=NOCCO1)c1ccccc1Oc1ncnc(Oc2ccccc2Cl)c1F	35.5 µM [falling, partial curve]
O=[N+]([O-])c1c(Cl)c(Cl)c(Cl)c(Cl)c1Cl	28.2 µM [falling, partial curve, poor fit]
CCc1ccc(C(=O)NN(C(=O)c2cc(C)cc(C)c2)C(C)(C)C)cc1	0.0355 µM [falling, full curve, poor fit]
NNC(N)=O	44.7 µM [rising, single point]
O=[N+]([O-])c1ccc(F)c([N+](=O)[O-])c1	4.47 µM [falling, partial curve, poor fit]

assay: qHTS assay for small molecule antagonists of vitamin D receptor signaling (AID 588541); conditions: HEK293T VDR-UAS-bla, beta-lactamase ratio, antagonist mode; measured here: W460 blue channel (cell viability)

Compound	AC50
O=C/C(Cl)=C(/Cl)C(=O)O	44.7 µM [falling, partial curve]
Clc1ccc(C(c2ccccc2Cl)C(Cl)(Cl)Cl)cc1 (stereo not given)	14.1 µM [rising, single point]
CCCCNC(=O)OCC#CI	50.1 µM [falling, single point]
O=c1oc2ccccc2c(O)c1C(CC(O)c1ccc(-c2ccc(Br)cc2)cc1)c1ccccc1 (stereo not given)	12.6 µM [rising, partial curve]
C[C@]12CC[C@H]3[C@@H](CCC4=CC(=O)CC[C@@]43C)[C@@H]1CC[C@@H]2O	14.1 µM [rising, full curve, poor fit]
CCc1nn(C)c(C(=O)NCc2ccc(C(C)(C)C)cc2)c1Cl	35.5 µM [falling, single point]
COC(=O)C(C)Oc1ccc(Oc2ccc(Cl)cc2Cl)cc1 (stereo not given)	15.8 µM [rising, full curve, poor fit]
COP(=O)(OC)SCn1c(=O)oc2cc(Cl)cnc21	44.7 µM [falling, partial curve, poor fit]
Clc1ccc([C@@]2(Cn3cncn3)C[C@H](Br)CO2)c(Cl)c1	1 µM [rising, single point]
CC(=O)[C@H]1[C@H](C#N)C[C@H]2[C@@H]3CC=C4C[C@@H](O)CC[C@]4(C)[C@H]3CC[C@@]21C	31.6 µM [rising, partial curve, poor fit] and 35.5 µM [rising, partial curve]

assay: qHTS assay for small molecule agonists of retinoid X receptor alpha signaling (AID 588544); conditions: HEK293T RXRa-UAS-bla, beta-lactamase reporter, 18 h; 530 nm emission

Compound	max response
O=C/C(Cl)=C(/Cl)C(=O)O	15.1%
O=C(O)CCCOc1ccc(Cl)cc1Cl	32.1%
ClC1=C(Cl)C2(Cl)C3C4C=CC(C4)C3C1(Cl)C2(Cl)Cl (stereo not given)	38.8%
Clc1ccc(C(c2ccccc2Cl)C(Cl)(Cl)Cl)cc1 (stereo not given)	33.1% and 29.6%
CCCCNC(=O)OCC#CI	4.61%
O=c1oc2ccccc2c(O)c1C(CC(O)c1ccc(-c2ccc(Br)cc2)cc1)c1ccccc1 (stereo not given)	57.4%
Oc1ccc(Cl)cc1Cl	-10.6%
C=C1CC[C@H](O)C/C1=C/C=C1\CCC[C@]2(C)[C@@H]([C@H](C)CCCC(C)C)CC[C@@H]12	47.2%
c1ccccc1	-17.8%
CCOP(=O)(SC(C)CC)N1CCSC1=O (stereo not given)	4.81%
CC(C)Oc1cccc(NC(=O)c2ccccc2C(F)(F)F)c1	32.6%
CO/N=C(/C1=NOCCO1)c1ccccc1Oc1ncnc(Oc2ccccc2Cl)c1F	9.25%
CCc1nn(C)c(C(=O)NCc2ccc(C(C)(C)C)cc2)c1Cl	34%
Oc1c(Br)cc(Br)cc1Br	13.5%
COCCOCCO	-27%
COC1=CC(=O)O[C@@H](/C=C/c2ccccc2)C1	34.3%

Compound	max response
Brc1cc(Br)c(Oc2cc(Br)c(Br)cc2Br)cc1Br	67%
CCOP(=S)(OCC)OC(Cl)C(Cl)(Cl)Cl (stereo not given)	-0.842%
C=CC(N)=O	-4.89%
CC(C)CC(C)Nc1ccc(Nc2ccccc2)cc1 (stereo not given)	15.7%
COP(=O)(OC)SCn1c(=O)oc2cc(Cl)cnc21	48.8%
O=[N+]([O-])c1ccc(Oc2ccc(C(F)(F)F)cc2[N+](=O)[O-])cc1	-8.7%
OC[P+](CO)(CO)CO	14.1% and 15.5%
CCOP(=O)(NC(C)C)Oc1ccc(S(C)(=O)=O)c(C)c1 (stereo not given)	-8.07%
NNC(N)=S	25.4%
O=[N+]([O-])c1ccc(F)c([N+](=O)[O-])c1	6.43%
Nc1c(Cl)c(Cl)nc(C(=O)O)c1Cl	14.3% and 33.1%
CC(C)N(C(=O)SCC(Cl)=C(Cl)Cl)C(C)C	-16.8%
Clc1ccc(-c2cc(Cl)c(Cl)cc2Cl)cc1Cl	-11.1%
NC1CCC(CC2CCC(N)CC2)CC1 (stereo not given)	-1.96%
CC(=O)[C@H]1[C@H](C#N)C[C@H]2[C@@H]3CC=C4C[C@@H](O)CC[C@]4(C)[C@H]3CC[C@@]21C	53.4% and 36.1%

assay: qHTS assay for small molecule antagonists of retinoid X receptor alpha signaling (AID 588546); conditions: HEK293T RXRa-UAS-bla, beta-lactamase ratio, antagonist mode; measured here: W530 green channel, cytotoxicity proxy;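 note: cells stimulated with 9-cis-retinoic acid as agonist; % is set by controls: 0 for no effect and ±100 for the full control effect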
Method in brief: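 Beta-lactamase reporter inhibition, read as CCF4 fluorescence ratio (ex 405, em 460/530 nm) after 2 h at RT. HEK293T UAS-bla cells, 2500/well, were stimulated with 9-cis-RA at 500 or 100 nM final alongside test compound for 18 h at 37 C.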

Compound	max response
O=C/C(Cl)=C(/Cl)C(=O)O	19.7%
Clc1ccc(C(c2ccccc2Cl)C(Cl)(Cl)Cl)cc1 (stereo not given)	-5.59%
O=c1oc2ccccc2c(O)c1C(CC(O)c1ccc(-c2ccc(Br)cc2)cc1)c1ccccc1 (stereo not given)	12.7%
CC(C)(c1ccccc1)c1ccc(O)cc1	-7.37%
CO/N=C(/C1=NOCCO1)c1ccccc1Oc1ncnc(Oc2ccccc2Cl)c1F	25.4%
O=[N+]([O-])c1c(Cl)c(Cl)c(Cl)c(Cl)c1Cl	6.11%
C[C@]12CC[C@H]3[C@@H](CCC4=CC(=O)CC[C@@]43C)[C@@H]1CC[C@@H]2O	13.6%
CCc1ccc(C(=O)NN(C(=O)c2cc(C)cc(C)c2)C(C)(C)C)cc1	-1.32%
CCc1nn(C)c(C(=O)NCc2ccc(C(C)(C)C)cc2)c1Cl	34.2%
NNC(N)=O	-16.9%
COP(=O)(OC)SCn1c(=O)oc2cc(Cl)cnc21	14.3%
